For part of these data: At least one compound was matched to its structure with a doubt left. Some entries share one result that the patent states for a list of compounds.
What was measured:
Acinetobacter spp = assay: In vitro MIC, 2010 surveillance isolates; assay type: cell-based; settings: N=9
E. faecalis VNS = assay: In vitro MIC, 2010 surveillance isolates; assay type: cell-based; settings: Europe; N=8
human plasma protein = settings: cited from earlier work

Compound	range of MICs (N <10, shown instead of MIC90) (Acinetobacter spp; Asia/Pac)	range of MICs (N <10, shown instead of MIC90) (Acinetobacter spp; L. Amer)	range of MICs (N <10, shown instead of MIC90) (E. faecalis VNS)	protein bound in human plasma (human plasma protein) [%]
C[C@@H](O)[C@H]1C(=O)N2C(C(=O)O)=C(SCCN=CN)C[C@H]12 [Imipenem]	≤0.12->8	≤0.12->8		
C[C@H]1COc2c(N3CCN(C)CC3)c(F)cc3c(=O)c(C(=O)O)cn1c23 [Levofloxacin]	≤0.5->4	≤0.5->4	1->4	
CC[C@H]1OC(=O)[C@@](C)(F)C(=O)[C@H](C)[C@@H](O[C@@H]2O[C@H](C)C[C@H](N(C)C)[C@H]2O)[C@](C)(OC)C[C@@H](C)C(=O)[C@H](C)[C@H]2N(CCCCn3cc(-c4cccc(N)c4)nn3)C(=O)O[C@]12C [solithromycin]				> 75
